Compounds and concentrations:
KU-55933: O=c1cc(-c2cccc3c2Sc2ccccc2S3)oc(N2CCOCC2)c1 at 5000 nM
enzastaurin: Cn1cc(C2=C(c3cn(C4CCN(Cc5ccccn5)CC4)c4ccccc34)C(=O)NC2=O)c2ccccc21 at 4000 nM
tipifarnib: Cn1cncc1[C@@](N)(c1ccc(Cl)cc1)c1ccc2c(c1)c(-c1cccc(Cl)c1)cc(=O)n2C at 50 nM
lapatinib: CS(=O)(=O)CCNCc1ccc(-c2ccc3ncnc(Nc4ccc(OCc5cccc(F)c5)c(Cl)c4)c3c2)o1 at 4000 nM
docetaxel: CC(=O)O[C@@]12CO[C@@H]1C[C@H](O)[C@@]1(C)C(=O)[C@H](O)C3=C(C)[C@@H](OC(=O)[C@H](O)[C@@H](NC(=O)OC(C)(C)C)c4ccccc4)C[C@@](O)([C@@H](OC(=O)c4ccccc4)[C@H]21)C3(C)C at 0.5 nM
ENMD-2076: Cc1cc(Nc2cc(N3CCN(C)CC3)nc(/C=C/c3ccccc3)n2)n[nH]1 at 200 nM
tanespimycin: C=CCNC1=C2C[C@@H](C)C[C@H](OC)[C@H](O)[C@@H](C)/C=C(\C)[C@H](OC(N)=O)[C@@H](OC)/C=C\C=C(/C)C(=O)NC(=CC1=O)C2=O at 10 nM
temozolomide: Cn1nnc2c(C(N)=O)ncn2c1=O at 10000 nM
cisplatin: N.N.[Cl][Pt][Cl] at 8000 nM

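The test systems are human melanoma cell lines, treated with a pair of drugs for 72 h and then stained and imaged. Values are the share of nuclei positive for cleaved PARP as a percentage of the same share in the DMSO control: 100 is the control level, higher means more apoptosis. Concentrations were fixed for each drug; these are the higher of two levels. The file gives one value for each pair and line, without errors, so small differences may be noise. Basal and induced levels differ widely between cell lines.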 This is part of the screen, not chosen by result. A dash means that no value is listed here.

Combination,LOX IMVI,MZ2-MEL,RVH-421,501mel,SK-MEL-5,C32,MEL-HO,A101D
tanespimycin + tipifarnib,77.4,338,156,-,107,3590,248,525
tanespimycin + docetaxel,242,2220,241,-,628,427,280,311
KU-55933 + docetaxel,108,602,125,104,382,109,397,1280
cisplatin + docetaxel,84.8,976,359,-,1510,134,291,186
docetaxel + tipifarnib,61.3,966,208,-,357,232,145,99.9
temozolomide + cisplatin,122,127,16.9,-,118,148,72.6,101
docetaxel + lapatinib,144,144,267,-,2810,509,54.7,299
tipifarnib + cisplatin,70.2,99.9,128,-,94.7,47.6,65.0,477
temozolomide + ENMD-2076,259,106,142,-,118,148,133,80.6
KU-55933 + enzastaurin,66.4,152,225,96.1,107,80.7,216,377
temozolomide + lapatinib,409,112,126,-,134,153,105,336
lapatinib + KU-55933,98.6,-,74.8,-,673,83.1,391,427
lapatinib + ENMD-2076,82.6,64.8,179,-,187,222,53.6,74.2
tipifarnib + enzastaurin,50.3,214,76.8,-,47.2,144,62.3,286
tipifarnib + KU-55933,102,46.1,164,113,59.4,103,34.2,280
temozolomide + docetaxel,52.3,1300,130,-,1530,1200,280,143
lapatinib + tanespimycin,138,125,181,-,103,573,70.9,138
enzastaurin + ENMD-2076,153,29.9,112,-,412,381,95.8,205
enzastaurin + docetaxel,194,-,571,-,2470,1040,215,62.2
cisplatin + tanespimycin,86.6,243,94.7,-,137,1100,85.2,98.4
enzastaurin + tanespimycin,140,33.8,186,-,79.0,532,111,619
ENMD-2076 + docetaxel,33.2,435,81.5,-,529,438,163,254
tanespimycin + KU-55933,76.9,194,84.7,38.6,107,538,108,76.7
ENMD-2076 + cisplatin,354,90.6,125,-,182,61.3,96.8,172
ENMD-2076 + tanespimycin,195,181,100,-,292,699,93.5,242
lapatinib + tipifarnib,166,235,306,-,432,57.5,81.9,188
ENMD-2076 + tipifarnib,50.7,105,120,-,217,180,81.5,134
temozolomide + tanespimycin,86.5,-,176,-,124,946,78.4,82.6
cisplatin + lapatinib,79.1,432,155,-,55.7,124,79.2,70.5
cisplatin + enzastaurin,163,-,66.3,-,71.4,40.2,118,35.4
cisplatin + KU-55933,71.3,92.5,186,33.4,42.7,186,96.3,198
KU-55933 + ENMD-2076,241,81.7,188,76.3,58.7,188,61.5,118

Some entries from above, unchanged:

Combination,LOX IMVI,MZ2-MEL,RVH-421,501mel,SK-MEL-5,C32,MEL-HO,A101D
enzastaurin + ENMD-2076,153,29.9,112,-,412,381,95.8,205
ENMD-2076 + cisplatin,354,90.6,125,-,182,61.3,96.8,172
temozolomide + docetaxel,52.3,1300,130,-,1530,1200,280,143

Values as published with doi:10.1371/journal.pone.0140310, rounded.